Results published in the supplement of paper PMC8728848.
The list shows a part of the results.

Experiments:
Experiment in all cases: glycan array binding signal (z-score within array); higher = stronger binding
Details in all cases: glycan notation: IUPAC condensed, linker removed
[1] = target: Gal(b1-4)GlcNAc(b1-2)[Gal(b1-4)GlcNAc(b1-6)]Man(a1-6)[GlcNAc(b1-4)][Gal(b1-4)GlcNAc(b1-2)Man(a1-3)]Man(b1-4)GlcNAc(b1-4)GlcNAc
Method in brief: (§1)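 Glycan array binding is given as a within-array Z-score, which can be read as non-binding when negative. The arrays, 3228 of them, came from the Consortium for Functional Glycomics database and were retained only where the protein sequence was available. Z-scores were averaged across arrays of the same protein sequence at different concentrations or buffers and across linkers.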

[2] = target: Gal(b1-4)GlcNAc(b1-2)[Gal(b1-4)GlcNAc(b1-6)]Man(a1-6)[GlcNAc(b1-4)][Gal(b1-4)GlcNAc(b1-2)[Gal(b1-4)GlcNAc(b1-4)]Man(a1-3)]Man(b1-4)GlcNAc(b1-4)[Fuc(a1-6)]GlcNAc
Method in brief: as §1

[3] = target: Gal(b1-4)GlcNAc(b1-3)Gal(b1-3)GalNAc
Method in brief: as §1

[4] = target: Gal(b1-4)GlcNAc(b1-3)Gal(b1-3)GlcNAc
Method in brief: as §1

[5] = target: Gal(b1-4)GlcNAc(b1-3)Gal(b1-4)Glc
Method in brief: as §1

[6] = target: Gal(b1-4)GlcNAc(b1-3)Gal(b1-4)GlcNAc
Method in brief: as §1

[7] = target: Gal(b1-4)GlcNAc(b1-3)Gal(b1-4)GlcNAc(b1-2)Man(a1-3)[Gal(b1-4)GlcNAc(b1-3)Gal(b1-4)GlcNAc(b1-2)Man(a1-6)]Man(b1-4)GlcNAc(b1-4)GlcNAc
Method in brief: as §1

[8] = target: Gal(b1-4)GlcNAc(b1-3)Gal(b1-4)GlcNAc(b1-2)Man(a1-3)[Gal(b1-4)GlcNAc(b1-3)Gal(b1-4)GlcNAc(b1-2)Man(a1-6)]Man(b1-4)GlcNAc(b1-4)[Fuc(a1-6)]GlcNAc
Method in brief: as §1

[9] = target: Gal(b1-4)GlcNAc(b1-3)Gal(b1-4)GlcNAc(b1-2)[Gal(b1-4)GlcNAc(b1-3)Gal(b1-4)GlcNAc(b1-6)]Man(a1-6)[Gal(b1-4)GlcNAc(b1-3)Gal(b1-4)GlcNAc(b1-2)Man(a1-3)]Man(b1-4)GlcNAc(b1-4)GlcNAc
Method in brief: as §1

[10] = target: Gal(b1-4)GlcNAc(b1-3)Gal(b1-4)GlcNAc(b1-2)[Gal(b1-4)GlcNAc(b1-3)Gal(b1-4)GlcNAc(b1-6)]Man(a1-6)[Gal(b1-4)GlcNAc(b1-3)Gal(b1-4)GlcNAc(b1-2)Man(a1-3)]Man(b1-4)GlcNAc(b1-4)[Fuc(a1-6)]GlcNAc
Method in brief: as §1

[11] = target: Gal(b1-4)GlcNAc(b1-3)Gal(b1-4)GlcNAc(b1-3)Gal(b1-4)GlcNAc
Method in brief: as §1

[12] = target: Gal(b1-4)GlcNAc(b1-3)Gal(b1-4)GlcNAc(b1-3)Gal(b1-4)GlcNAc(b1-2)Man(a1-3)[Gal(b1-4)GlcNAc(b1-3)Gal(b1-4)GlcNAc(b1-3)Gal(b1-4)GlcNAc(b1-2)Man(a1-6)]Man(b1-4)GlcNAc(b1-4)GlcNAc
Method in brief: as §1

[13] = target: Gal(b1-4)GlcNAc(b1-3)Gal(b1-4)GlcNAc(b1-3)Gal(b1-4)GlcNAc(b1-2)Man(a1-3)[Gal(b1-4)GlcNAc(b1-3)Gal(b1-4)GlcNAc(b1-3)Gal(b1-4)GlcNAc(b1-2)Man(a1-6)]Man(b1-4)GlcNAc(b1-4)[Fuc(a1-6)]GlcNAc
Method in brief: as §1

[14] = target: Gal(b1-4)GlcNAc(b1-3)Gal(b1-4)GlcNAc(b1-3)Gal(b1-4)GlcNAc(b1-2)[Gal(b1-4)GlcNAc(b1-3)Gal(b1-4)GlcNAc(b1-3)Gal(b1-4)GlcNAc(b1-6)]Man(a1-6)[Gal(b1-4)GlcNAc(b1-3)Gal(b1-4)GlcNAc(b1-3)Gal(b1-4)GlcNAc(b1-2)Man(a1-3)]Man(b1-4)GlcNAc(b1-4)[Fuc(a1-6)]GlcNAc
Method in brief: as §1

[15] = target: Gal(b1-4)GlcNAc(b1-3)Gal(b1-4)GlcNAc(b1-3)Gal(b1-4)GlcNAc(b1-3)Gal(b1-4)GlcNAc(b1-2)Man(a1-3)[Gal(b1-4)GlcNAc(b1-3)Gal(b1-4)GlcNAc(b1-3)Gal(b1-4)GlcNAc(b1-3)Gal(b1-4)GlcNAc(b1-2)Man(a1-6)]Man(b1-4)GlcNAc(b1-4)GlcNAc
Method in brief: as §1

[16] = target: Gal(b1-4)GlcNAc(b1-3)Gal(b1-4)GlcNAc(b1-3)Gal(b1-4)GlcNAc(b1-3)Gal(b1-4)GlcNAc(b1-2)Man(a1-3)[Gal(b1-4)GlcNAc(b1-3)Gal(b1-4)GlcNAc(b1-3)Gal(b1-4)GlcNAc(b1-3)Gal(b1-4)GlcNAc(b1-2)Man(a1-6)]Man(b1-4)GlcNAc(b1-4)[Fuc(a1-6)]GlcNAc
Method in brief: as §1

[17] = target: Gal(b1-4)GlcNAc(b1-3)Gal(b1-4)GlcNAc(b1-3)Gal(b1-4)GlcNAc(b1-3)Gal(b1-4)GlcNAc(b1-2)[Gal(b1-4)GlcNAc(b1-3)Gal(b1-4)GlcNAc(b1-3)Gal(b1-4)GlcNAc(b1-3)Gal(b1-4)GlcNAc(b1-6)]Man(a1-6)[Gal(b1-4)GlcNAc(b1-3)Gal(b1-4)GlcNAc(b1-3)Gal(b1-4)GlcNAc(b1-3)Gal(b1-4)GlcNAc(b1-2)Man(a1-3)]Man(b1-4)GlcNAc(b1-4)[Fuc(a1-6)]GlcNAc
Method in brief: as §1

[18] = target: Gal(b1-4)GlcNAc(b1-3)Gal(b1-4)GlcNAc(b1-3)Gal(b1-4)GlcNAc(b1-3)Gal(b1-4)GlcNAc(b1-3)Gal(b1-4)GlcNAc(b1-2)Man(a1-3)[Gal(b1-4)GlcNAc(b1-3)Gal(b1-4)GlcNAc(b1-3)Gal(b1-4)GlcNAc(b1-3)Gal(b1-4)GlcNAc(b1-3)Gal(b1-4)GlcNAc(b1-2)Man(a1-6)]Man(b1-4)GlcNAc(b1-4)GlcNAc
Method in brief: as §1

[19] = target: Gal(b1-4)GlcNAc(b1-3)Gal(b1-4)GlcNAc(b1-3)Gal(b1-4)GlcNAc(b1-3)Gal(b1-4)GlcNAc(b1-3)Gal(b1-4)GlcNAc(b1-2)Man(a1-3)[Gal(b1-4)GlcNAc(b1-3)Gal(b1-4)GlcNAc(b1-3)Gal(b1-4)GlcNAc(b1-3)Gal(b1-4)GlcNAc(b1-3)Gal(b1-4)GlcNAc(b1-2)Man(a1-6)]Man(b1-4)GlcNAc(b1-4)[Fuc(a1-6)]GlcNAc
Method in brief: as §1

[20] = target: Gal(b1-4)GlcNAc(b1-3)Gal(b1-4)GlcNAc(b1-3)Gal(b1-4)GlcNAc(b1-3)Gal(b1-4)GlcNAc(b1-3)Gal(b1-4)GlcNAc(b1-2)[Gal(b1-4)GlcNAc(b1-3)Gal(b1-4)GlcNAc(b1-3)Gal(b1-4)GlcNAc(b1-3)Gal(b1-4)GlcNAc(b1-3)Gal(b1-4)GlcNAc(b1-6)]Man(a1-6)[Gal(b1-4)GlcNAc(b1-3)Gal(b1-4)GlcNAc(b1-3)Gal(b1-4)GlcNAc(b1-3)Gal(b1-4)GlcNAc(b1-3)Gal(b1-4)GlcNAc(b1-2)Man(a1-3)]Man(b1-4)GlcNAc(b1-4)[Fuc(a1-6)]GlcNAc
Method in brief: as §1

[21] = target: Gal(b1-4)GlcNAc(b1-3)Gal(b1-4)GlcNAc(b1-3)Gal(b1-4)GlcNAc(b1-3)Gal(b1-4)GlcNAc(b1-3)Gal(b1-4)GlcNAc(b1-3)Gal(b1-4)GlcNAc(b1-2)Man(a1-3)[Gal(b1-4)GlcNAc(b1-3)Gal(b1-4)GlcNAc(b1-3)Gal(b1-4)GlcNAc(b1-3)Gal(b1-4)GlcNAc(b1-3)Gal(b1-4)GlcNAc(b1-3)Gal(b1-4)GlcNAc(b1-2)Man(a1-6)]Man(b1-4)GlcNAc(b1-4)GlcNAc
Method in brief: as §1

[22] = target: Gal(b1-4)GlcNAc(b1-3)Gal(b1-4)GlcNAc(b1-3)GalNAc
Method in brief: as §1

[23] = target: Gal(b1-4)GlcNAc(b1-3)Gal(b1-4)GlcNAc(b1-3)[Gal(b1-4)GlcNAc(b1-3)Gal(b1-4)GlcNAc(b1-6)]GalNAc
Method in brief: as §1

[24] = target: Gal(b1-4)GlcNAc(b1-3)Gal(b1-4)GlcNAc(b1-6)[Gal(b1-3)]GalNAc
Method in brief: as §1

[25] = target: Gal(b1-4)GlcNAc(b1-3)Gal(b1-4)[Fuc(a1-3)]GlcNAc(b1-3)Gal(b1-4)[Fuc(a1-3)]GlcNAc
Method in brief: as §1

[26] = target: Gal(b1-4)GlcNAc(b1-3)GalNAc
Method in brief: as §1

[27] = target: Gal(b1-4)GlcNAc(b1-3)[Fuc(a1-3)GlcNAc(b1-6)]Gal(b1-4)Glc
Method in brief: as §1

[28] = target: Gal(b1-4)GlcNAc(b1-3)[Gal(b1-4)GlcNAc(b1-6)]Gal(b1-4)GlcNAc
Method in brief: as §1

[29] = target: Gal(b1-4)GlcNAc(b1-3)[GlcNAc(b1-6)]Gal(b1-4)GlcNAc
Method in brief: as §1

[30] = target: Gal(b1-4)GlcNAc(b1-6)Gal(b1-4)GlcNAc
Method in brief: as §1

[31] = target: Gal(b1-4)GlcNAc(b1-6)GalNAc
Method in brief: as §1

[32] = target: Gal(b1-4)GlcNAc(b1-6)[Gal(b1-3)]GalNAc
Method in brief: as §1

[33] = target: Gal(b1-4)GlcNAc(b1-6)[Gal(b1-4)GlcNAc(b1-3)]GalNAc
Method in brief: as §1

Gal(b1-4)GlcNAc6P = target: Gal(b1-4)GlcNAc6P
Method in brief: as §1

Gal(b1-6)Gal = target: Gal(b1-6)Gal
Method in brief: as §1

Gal3S(b1-3)GalNAc = target: Gal3S(b1-3)GalNAc
Method in brief: as §1

Gal3S(b1-3)GlcNAc = target: Gal3S(b1-3)GlcNAc
Method in brief: as §1

[34] = target: Gal3S(b1-3)[Fuc(a1-4)]GlcNAc
Method in brief: as §1

B1: SAOUHSC 02783 (Staphylococcus aureus), Q5HD69 (protein)
chain: MIHSKKLTLGICLVLLIILIVGYVIMTKTNGRNAQIKDTFNQTLKLYPTKNLDDFYDKEGFRDQEFKKGDKGTWIVNSEMVIEPKGKDMETRGMVLYINRNTRTTKGYYFISEMTDDSNGRPKDDEKRYPVKMEHNKIIPTKPLPNDKLKKEIENFKFFVQYGNFKDINDYKDGDISYNPNVPSYSAKYQLNNDDYNVQQLRKRYDIPTKQAPKLLLKGDGDLKGSSVGSRSLEFTFVENKEENIYFTDSVQYTPSEDTRYESN
For B1, the “glycan array binding signal (z-score)” value [1] was 0.044, the “glycan array binding signal (z-score)” value [2] was -0.197 and the “glycan array binding signal (z-score)” value [3] was -0.665. For the same binder, the “glycan array binding signal (z-score)” value [4] was -1.42, the “glycan array binding signal (z-score)” value [5] was -0.187 and the “glycan array binding signal (z-score)” value [6] was 0.039. For the same binder, the “glycan array binding signal (z-score)” value [7] was 2.58, the “glycan array binding signal (z-score)” value [8] was -0.335 and the “glycan array binding signal (z-score)” value [9] was 0.532. The “glycan array binding signal (z-score)” value [10] was -1.48, the “glycan array binding signal (z-score)” value [11] was -0.386 and the “glycan array binding signal (z-score)” value [12] was 1.11. For the same binder, the “glycan array binding signal (z-score)” value [13] was 0.271, the “glycan array binding signal (z-score)” value [14] was -0.075 and the “glycan array binding signal (z-score)” value [15] was 0.31. For the same binder, the “glycan array binding signal (z-score)” value [16] was 0.105, the “glycan array binding signal (z-score)” value [17] was 0.292 and the “glycan array binding signal (z-score)” value [18] was -0.383. The “glycan array binding signal (z-score)” value [19] was -0.006, the “glycan array binding signal (z-score)” value [20] was 1.04 and the “glycan array binding signal (z-score)” value [21] was 1.7. The “glycan array binding signal (z-score)” value [22] was 0.101, the “glycan array binding signal (z-score)” value [23] was 0.887 and the “glycan array binding signal (z-score)” value [24] was 0.117. For the same binder, the “glycan array binding signal (z-score)” value [25] was -1.07, the “glycan array binding signal (z-score)” value [26] was -0.658 and the “glycan array binding signal (z-score)” value [27] was -0.544. For the same binder, the “glycan array binding signal (z-score)” value [28] was 0.204, the “glycan array binding signal (z-score)” value [29] was -0.418 and the “glycan array binding signal (z-score)” value [30] was 0.177. For the same binder, the “glycan array binding signal (z-score)” value [31] was 0.672, the “glycan array binding signal (z-score)” value [32] was 0.11 and the “glycan array binding signal (z-score)” value [33] was 0.036. For the same binder, the “glycan array binding signal (z-score)” value (Gal(b1-4)GlcNAc6P) was -0.503, the “glycan array binding signal (z-score)” value (Gal(b1-6)Gal) was 0.805 and the “glycan array binding signal (z-score)” value (Gal3S(b1-3)GalNAc) was -0.373. For the same binder, the “glycan array binding signal (z-score)” value (Gal3S(b1-3)GlcNAc) was 0.601 and the “glycan array binding signal (z-score)” value [34] was -0.32.
